Laboratory results reported in PMC10919652.

Biological target: T1, Flag-tagged Tp53 (zebrafish Tumour protein p53) (zebrafish) (UniProt P79734)
T1 sequence: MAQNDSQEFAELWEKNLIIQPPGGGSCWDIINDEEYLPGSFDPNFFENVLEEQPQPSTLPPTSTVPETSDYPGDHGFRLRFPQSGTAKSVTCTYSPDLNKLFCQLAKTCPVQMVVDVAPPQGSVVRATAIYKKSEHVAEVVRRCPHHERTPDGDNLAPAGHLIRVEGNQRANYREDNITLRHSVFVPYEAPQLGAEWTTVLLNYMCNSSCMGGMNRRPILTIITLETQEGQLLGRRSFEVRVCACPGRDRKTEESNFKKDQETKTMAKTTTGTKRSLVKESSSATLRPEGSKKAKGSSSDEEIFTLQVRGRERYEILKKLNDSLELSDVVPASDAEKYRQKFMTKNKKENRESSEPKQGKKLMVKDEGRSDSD
Experiment: co-IP; HEK293T cells co-transfected with Myc-tagged Fancl and Flag-tagged Tp53 plasmids (10 ug in total); lysed in RIPA buffer 24 h after transfection; supernatant incubated with anti-Flag or Myc magnetic beads overnight at 4 °C; western blot

Myc-tagged Fancl (zebrafish Fanconi anemia complementation group L) (enzyme)
binding: binds

Results are given in words; binding and its absence hold for the method and conditions named. Binding seen in cells or lysates may run through a third protein. A result given as binding can be weak or reduced; the word gives no strength. Tags and fused reporters may be left off the sequences shown.
